The source of these data is PubChem BioAssay AID192 (DTP/NCI, 2004).

The list is a part of this screen's results and no random one: it is rich in T/C values a quarter to a half above the control, in often repeated tests (any T/C) and in doses without a T/C. Further doses and runs are listed elsewhere. T/C: endpoint of the treated group in % of that of the vehicle group. Some entries give survivors of the animals treated and no T/C: the source files T/C as zero there, which appears to mark a toxic dose or a test without result, not a measured value. Some doses without a T/C left all or most animals alive at the check, yet need not have been tolerated: the source hardly ever lists a survival T/C far under the control, and the zero likely stands for such cases as well. Survivors were counted at the toxicity check, usually on the fifth day, unless a day is given; later deaths do not show. Schedules are NCI's codes, read here as Q, the interval in days (D) or hours (H), X, the number of doses. Some molecules as drawn cover several salts, stereoisomers or complexes of the source; a dose is that of the sample tested. Marks such as (2×) give the number of equal values in this list. Where survival is the endpoint, this PubChem deposit counts one and a half times the control or more as active, and values a quarter to a half above the control carry no call in these data; other NCI protocols may use other cut-offs.

This experiment relates to BDF1 mice, B16 melanoma ip, median survival T/C. As to the kind of experiment: NCI In Vivo Anticancer Drug Screen. Data for tumor model B16 Melanoma (intraperitoneal) in B6D2F1 (BDF1) mice. The settings on record: T/C endpoint: median survival time, higher T/C = longer survival. The gist of the method: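 The ratio T/C compares compound-treated mice with vehicle-treated controls, using survival or tumor size as the endpoint in a transplantable tumor model.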

[1] abbreviates: dose: 200.0 mg/kg/injection, schedule: Q01DX009 (ip), vehicle: saline.
Where [2] appears, read: dose: 100.0 mg/kg/injection, schedule: Q01DX009 (ip), vehicle: Klucel (hydroxypropylcellulose) (HPC).
Setting [3] is: dose: 50.0 mg/kg/injection, schedule: Q01DX009 (ip), vehicle: saline.
[4] abbreviates: dose: 100.0 mg/kg/injection, schedule: Q01DX009 (ip), vehicle: saline.
Setting [5] is: dose: 400.0 mg/kg/injection, schedule: Q01DX009 (ip), vehicle: saline.
Setting [6] is: dose: 25.0 mg/kg/injection, schedule: Q01DX009 (ip), vehicle: saline.
The mark [7] stands for this setting: dose: 200.0 mg/kg/injection, schedule: Q01DX009 (ip), vehicle: Klucel (hydroxypropylcellulose) (HPC).
Setting [8] is: dose: 400.0 mg/kg/injection, schedule: Q01DX009 (ip), vehicle: Klucel (hydroxypropylcellulose) (HPC).

Regarding `COc1cccc2c1C(=O)c1c(O)c3c(c(O)c1C2=O)C[C@@](O)(C(=O)COC(=O)Cc1cccc2ccccc12)C[C@@H]3OC1CC(N)C(O)C(C)O1` (some centres undefined), where the note is “dose: 0.5 mg/kg/injection, schedule: Q01DX009 (ip), vehicle: saline with Tween-80”, the T/C is 135 % of control. For the same compound, the survivor count runs as follows: (dose: 8.0 mg/kg/injection, schedule: Q01DX009 (ip), vehicle: saline with Tween-80) 10 of 10; (dose: 16.0 mg/kg/injection, schedule: Q01DX009 (ip), vehicle: saline with Tween-80) 10 of 10.

As for `FC(F)(F)c1ccc2c(c1)N(CCCN1CCN(CCN3CCOCC3)CC1)c1ccccc1S2`, the survivor count by setting is: (dose: 4.4 mg/kg/injection, schedule: Q01DX009 (ip), vehicle: saline) 10 of 10; (dose: 6.8 mg/kg/injection, schedule: Q01DX009 (ip), vehicle: saline) 7 of 10; (dose: 10.0 mg/kg/injection, schedule: Q01DX009 (ip), vehicle: saline) 9 of 10.

On to `CC1(C)COCN1COCCOCN1COCC1(C)C`, for which, under setting [1], the survivor count was 9 of 10.

Regarding `O=C(O)c1ccc(C(Cl)(Cl)Cl)cc1`, the survivor count (dose: 200.0 mg/kg/injection, schedule: Q01DX009 (ip), vehicle: saline with Tween-80) was 8 of 10.

For `CN(C(=S)S(=O)(=O)C12CC3CC(CC(C3)C1)C2)c1ccccc1`, the survivor count under setting [2] is on record as 9 of 10.

For `O=C(CC(O)(C(F)(F)F)C(F)(F)F)CC(O)(C(F)(F)F)C(F)(F)F`, the T/C (dose: 1.25 mg/kg/injection, schedule: Q04DX003 (ip), vehicle: saline) is 125 % of control. The survivor count (dose: 5.0 mg/kg/injection, schedule: Q04DX003 (ip), vehicle: saline) is 10 of 10 (2×).

With `CCC[CH2][Pb]([CH2]CCC)([CH2]CCC)[O]C(=O)CCl`, the survivor count is, setting by setting: (dose: 3.13 mg/kg/injection, schedule: Q01DX009 (ip), vehicle: Klucel (hydroxypropylcellulose) (HPC)) 10 of 10; (dose: 6.25 mg/kg/injection, schedule: Q01DX009 (ip), vehicle: Klucel (hydroxypropylcellulose) (HPC)) 9 of 10.

Consider `NNc1ncnc2nc[nH]c12`, for which, where the note is “dose: 6.25 mg/kg/injection, schedule: Q01DX009 (ip), vehicle: saline”, the T/C was 130 % of control. Further, the survivor count was 4 of 10 under setting [3], 0 of 10 under setting [4], 0 of 10 under setting [1] and 0 of 10 under setting [5].

With `ClN=C(c1ccccc1)c1ccccc1`, the survivor count under setting [2] was 7 of 10.

On to `CC(=O)O[C@@]1(C)[C@@H](C)C(=O)O[C@@H]2CCN3CC=C(COC(=O)[C@]1(C)O)[C@H]23`, for which the T/C under setting [6] was 133 % of control.

In the case of `CNCCCN(C)CCCNC`, the survivor count is 10 of 10 under setting [3] and 8 of 10 under setting [4].

In the case of `Nc1nc(N)nc(N)n1`, the survivor count is, setting by setting: (dose: 800.0 mg/kg/injection, schedule: Q01DX009 (ip), vehicle: Klucel (hydroxypropylcellulose) (HPC)) 10 of 10; (dose: 1600.0 mg/kg/injection, schedule: Q01DX009 (ip), vehicle: saline with Tween-80) 7 of 10.

As to `C[C@@H]1CN1C1=CC(=O)C(N2C[C@H]2C)=CC1=O`, the T/C by setting is: (dose: 1.0 mg/kg/injection, schedule: Q01DX009 (ip), vehicle: saline) 127 % of control; (dose: 2.0 mg/kg/injection, schedule: Q01DX009 (ip), vehicle: saline) 147 % of control.

Consider `O=c1[nH]/c(=C\c2ccc3c(c2)OCO3)c(=O)[nH]/c1=C\c1ccc2c(c1)OCO2`, for which the survivor count was 10 of 10 under setting [7] and 10 of 10 under setting [8].

Take `Clc1ccc2c(c1)-c1ccccc1C1=NCCN12`: the survivor count is given as 7 of 10 (dose: 20.0 mg/kg/injection, schedule: Q01DX009 (ip), vehicle: saline) and 0 of 10 (dose: 40.0 mg/kg/injection, schedule: Q01DX009 (ip), vehicle: saline).

Take `CCC(CC)(COC(N)=O)COC(N)=O`: the survivor count was 9 of 10 (dose: 25.0 mg/kg/injection, schedule: Q01DX009 (ip), vehicle: Klucel (hydroxypropylcellulose) (HPC)); 9 of 10 (dose: 50.0 mg/kg/injection, schedule: Q01DX009 (ip), vehicle: Klucel (hydroxypropylcellulose) (HPC)); 10 of 10 under setting [2]; 10 of 10 under setting [7]; 10 of 10 under setting [8].

For `CCCCOB(/C=C/Sc1ccccc1)OCCCC`, the survivor count reads like this: under setting [2], 10 of 10; under setting [7], 5 of 10.

`O=C(O)C(CSC(c1ccccc1)(c1ccccc1)c1ccccc1)N=Cc1cccs1` (centres undefined): the T/C under setting [3] was 134 % of control. Besides, the survivor count reads like this: under setting [4], 10 of 10; under setting [1], 10 of 10; under setting [5], 4 of 10.

Turning to `Cc1ccc2c(ccc(/C=C\c3cc(C)c4cccnc4c3O)[n+]2C)c1`, the survivor count is reported as 10 of 10 (dose: 12.5 mg/kg/injection, schedule: Q01DX009 (ip), vehicle: saline with Tween-80); 2 of 10 (dose: 25.0 mg/kg/injection, schedule: Q01DX009 (ip), vehicle: saline with Tween-80); 3 of 10 (dose: 50.0 mg/kg/injection, schedule: Q01DX009 (ip), vehicle: saline with Tween-80).

`O=C(O)c1cc(-c2ccc(Cl)cc2)nc2c(Cl)cccc12`: the survivor count is recorded as 9 of 10 under setting [7] and 0 of 10 under setting [8].

`O=C(COc1ccc(Cl)cc1)Nc1cccnc1`: the survivor count under setting [2] is 0 of 10.

Take `Cc1cc(-c2ccc(N=Nc3ccc4c(S(=O)(=O)O)cc(S(=O)(=O)O)c(N)c4c3O)c(C)c2)ccc1N=Nc1ccc2c(S(=O)(=O)O)cc(S(=O)(=O)O)c(N)c2c1O`: under setting [6], the T/C is 127 % of control. Under setting [3], the survivor count is listed as 10 of 10.

For the compound `CC(C)=CCC(OC(=O)C=C(C)C)C1=CC(=O)c2c(O)ccc(O)c2C1=O` (centres undefined), the survivor count (dose: 1.0 mg/kg/injection, schedule: Q01DX009 (ip), vehicle: Klucel (hydroxypropylcellulose) (HPC)) is recorded as 10 of 10.

As for `CCC1CC2CN(CCc3c([nH]c4ccccc34)C(C(=O)OC)(c3cc4c(cc3OC)N(C)C3C(O)(C(=O)OC)C(OC(C)=O)C5(CC)C=CCN6CCC43C65)C2)C1` (centres undefined), the T/C reads like this: (dose: 0.1 mg/kg/injection, schedule: Q01DX009 (ip), vehicle: Klucel (hydroxypropylcellulose) (HPC)) 133 % of control; (dose: 0.2 mg/kg/injection, schedule: Q01DX009 (ip), vehicle: Klucel (hydroxypropylcellulose) (HPC)) 143 % of control; (dose: 0.25 mg/kg/injection, schedule: Q01DX009 (ip), vehicle: water, evaluated on day 45) 130 % of control; (dose: 0.25 mg/kg/injection, schedule: Q01DX009 (ip), vehicle: water, evaluated on day 60) 130 % of control; (dose: 0.25 mg/kg/injection, schedule: Q04DX003 (ip), vehicle: water) 143 % of control; (dose: 0.5 mg/kg/injection, schedule: Q01DX009 (ip), vehicle: water, evaluated on day 45) 131 % of control. The T/C (dose: 0.5 mg/kg/injection, schedule: Q01DX009 (ip), vehicle: water, evaluated on day 60) is 136 % of control. Also, the survivor count is on record as 10 of 10 (dose: 2.0 mg/kg/injection, schedule: Q01DX009 (ip), vehicle: water); 6 of 6 (dose: 3.2 mg/kg/injection, schedule: Q01DX009 (ip), vehicle: Klucel (hydroxypropylcellulose) (HPC)); 9 of 10 (dose: 4.0 mg/kg/injection, schedule: Q01DX009 (ip), vehicle: water); 10 of 10 (dose: 4.0 mg/kg/injection, schedule: Q04DX003 (ip), vehicle: water); 6 of 6 (dose: 6.4 mg/kg/injection, schedule: Q01DX009 (ip), vehicle: Klucel (hydroxypropylcellulose) (HPC)); 2 of 6 (dose: 12.8 mg/kg/injection, schedule: Q01DX009 (ip), vehicle: Klucel (hydroxypropylcellulose) (HPC)).

Regarding `O=C(NC(CSCc1ccccc1)C(=O)Oc1ccc([N+](=O)[O-])cc1)OCc1ccccc1` (centres undefined), the survivor count (dose: 50.0 mg/kg/injection, schedule: Q01DX009 (ip), vehicle: gum acacia) is on record as 10 of 10.
